Measurements taken from patent publication US20010021697A1 (priority 1987, published 2001).

Experiment: peptide synthesis
Settings: whole synthesis, HPLC elution profile from a C18 column, acetonitrile gradient in 0.1% trifluoroacetate

## H-Gly-Ile-Gly-Ala-Val-Leu-Lys-Val-Leu-Thr-Thr-Gly-Leu-Pro-Ala-Leu-Ile-Ser-Trp-Ile-Lys-Lys-Lys-Lys-Gln-Gln-NH2 (GIGAVLKVLTTGLPALISWIKKKKQQ; printed: Gly-Ile-Gly-Ala-Val-Leu-Lys-Val-Leu-Thr-Thr-Gly-Leu-Pro-Ala-Leu-Ile-Ser-Trp-Ile-Lys-Lys-Lys-Lys-Gln-Gln-)
  purity (crude or final not stated): better than 98% pure
